In the supplement of paper PMC12823440, “Inhibitors supercharge kinase turnover through native proteolytic circuits” (Nature, 2025):
The list shows a part of the results. Hit calls seldom repeat between salt and free forms of one compound.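 In K562 cells expressing nanoluciferase-fused kinases, luminescence was recorded at 4 h intervals between 2 and 18 h, normalized as percent of control with DMSO at 100% and a positive control at 0%. A significant (2 sigma) signal drop marks a time point as decreased. The authors' rule for a hit is not shown and takes in more than the number of time points.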

By UniProt entry, the sequences of proteins in these tests, tags left out. Where a name states a change or a piece, a line headed by the entry shows the natural chain unless it says otherwise.
UniProt P07333, whole entry: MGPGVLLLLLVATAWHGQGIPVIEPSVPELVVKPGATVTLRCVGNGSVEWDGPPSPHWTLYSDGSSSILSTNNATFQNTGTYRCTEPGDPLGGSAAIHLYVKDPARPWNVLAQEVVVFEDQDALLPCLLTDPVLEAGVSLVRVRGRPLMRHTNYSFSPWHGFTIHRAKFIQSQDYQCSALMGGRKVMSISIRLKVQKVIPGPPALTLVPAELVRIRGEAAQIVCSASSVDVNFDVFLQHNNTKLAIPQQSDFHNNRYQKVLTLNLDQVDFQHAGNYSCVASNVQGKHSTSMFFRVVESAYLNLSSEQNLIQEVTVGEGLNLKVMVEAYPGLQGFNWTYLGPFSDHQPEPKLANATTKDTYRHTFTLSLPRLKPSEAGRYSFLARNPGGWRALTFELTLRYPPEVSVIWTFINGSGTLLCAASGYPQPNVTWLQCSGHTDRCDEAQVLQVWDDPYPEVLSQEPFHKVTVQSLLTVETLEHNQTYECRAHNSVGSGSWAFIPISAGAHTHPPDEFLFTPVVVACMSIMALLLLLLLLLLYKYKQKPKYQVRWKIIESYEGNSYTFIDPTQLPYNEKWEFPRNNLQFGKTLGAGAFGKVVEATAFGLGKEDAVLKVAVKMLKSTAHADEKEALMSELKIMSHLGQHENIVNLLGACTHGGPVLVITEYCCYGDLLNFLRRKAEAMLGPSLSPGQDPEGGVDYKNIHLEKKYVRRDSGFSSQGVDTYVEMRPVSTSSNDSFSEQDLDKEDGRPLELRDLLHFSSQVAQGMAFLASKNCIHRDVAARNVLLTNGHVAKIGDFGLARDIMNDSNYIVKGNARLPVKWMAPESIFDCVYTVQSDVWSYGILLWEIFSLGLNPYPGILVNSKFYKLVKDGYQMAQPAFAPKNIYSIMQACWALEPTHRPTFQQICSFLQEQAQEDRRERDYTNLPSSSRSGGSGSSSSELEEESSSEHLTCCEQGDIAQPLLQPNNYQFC
UniProt P41240: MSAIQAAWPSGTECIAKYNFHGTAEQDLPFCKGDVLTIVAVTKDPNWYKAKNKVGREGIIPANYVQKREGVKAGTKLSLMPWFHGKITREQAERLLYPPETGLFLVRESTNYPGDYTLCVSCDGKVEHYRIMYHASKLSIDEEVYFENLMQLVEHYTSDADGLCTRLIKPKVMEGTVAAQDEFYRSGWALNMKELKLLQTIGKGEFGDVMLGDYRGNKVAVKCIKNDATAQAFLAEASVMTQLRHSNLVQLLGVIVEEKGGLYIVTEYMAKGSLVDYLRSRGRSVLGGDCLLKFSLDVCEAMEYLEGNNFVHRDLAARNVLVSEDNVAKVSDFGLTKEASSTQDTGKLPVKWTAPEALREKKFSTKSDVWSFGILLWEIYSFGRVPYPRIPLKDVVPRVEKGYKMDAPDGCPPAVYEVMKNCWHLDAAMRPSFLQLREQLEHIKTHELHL

target: CSF1R (UniProt P07333); assay: kinase-Nluc reporter destabilization hit call (1 = scored as downregulated) (binary); higher = compound decreases kinase abundance; conditions: K562; 2-18 h

Structure (SMILES) | kinase-Nluc reporter destabilization hit call
O=c1cc(O)c2ccccc2o1 [4-Hydroxycoumarin] (10 µM) | inactive: 0
CCCCNc1nc(N)c2[nH]c(=O)n(Cc3ccc(C)nc3)c2n1 (10 µM) | inactive: 0
CCCS(=O)(=O)Nc1ccc(F)c(-n2cc(-c3cncnc3)c3nc(N(C)C4CCN(CC)CC4)ccc32)c1F (2 µM) | inactive: 0
C[C@H]1CC[C@]2(NC1)O[C@H]1C[C@H]3[C@@H]4CC[C@H]5C[C@@H](O[C@@H]6O[C@H](CO)[C@H](O[C@@H]7O[C@H](CO)[C@@H](O)[C@H](O[C@@H]8OC[C@@H](O)[C@H](O)[C@H]8O)[C@H]7O[C@@H]7O[C@H](CO)[C@@H](O)[C@H](O)[C@H]7O)[C@H](O)[C@H]6O)CC[C@]5(C)[C@H]4CC[C@]3(C)[C@H]1[C@@H]2C [Tomatine] (2.5 µM) | active: 1
Cc1n[nH]cc1-c1cc2nc([C@@H]3CC4CCN3CC4)[nH]c(=O)c2s1 [Simurosertib] (2.5 µM) | inactive: 0
O=Cc1cn(Cc2ccc(Cl)cc2)c2ccccc12 [Oncrasin-1] (10 µM) | inactive: 0
CC(=O)OC(C)(C)/C=C/C(=O)[C@](C)(O)[C@H]1[C@H](O)C[C@@]2(C)[C@@H]3CC=C4[C@@H](C=C(O)C(=O)C4(C)C)[C@]3(C)C(=O)C[C@]12C [Cucurbitacin E] (2.5 µM) | inactive: 0
C[C@@H]1CC[C@H]2[C@@H](C)C(=O)O[C@@H]3O[C@@]4(C)CC[C@@H]1[C@]32OO4 [Artemisinin] (10 µM) | inactive: 0
COc1ccc2c(c1)/C(=C/c1cnc[nH]1)C(=O)N2 (2.5 µM) | inactive: 0
CC(=O)O[C@H]1[C@H]2[C@@H](OC(=O)Cc3ccccc3)[C@@H](C)C[C@]2(OC(C)=O)C(=O)/C(C)=C/[C@@H]2[C@H](CC[C@@]13CO3)C2(C)C [Euphorbiasteroid] (10 µM) | inactive: 0
O=c1[nH]c2ccccc2n1C1CCN(CCCC(c2ccc(F)cc2)c2ccc(F)cc2)CC1 [Pimozide] (2.5 µM) | inactive: 0
CC(=O)Oc1ccc(/C=C/c2cc(OC(C)=O)cc(OC(C)=O)c2)cc1 [Triacetylresveratrol] (10 µM) | inactive: 0
C/C=C(/C)C(=O)O[C@H]1[C@@H]2[C@H](C)C(=O)O[C@@H]2C[C@@H](C)[C@@H]2C=CC(=O)[C@]21C [Brevilin A] (2.5 µM) | inactive: 0
O=[N+]([O-])/C=C/c1ccc2c(c1)OCO2 (2.5 µM) | inactive: 0
O=C(O)c1nn(Cc2ccc(Cl)cc2Cl)c2ccccc12 [Lonidamine] (10 µM) | inactive: 0
CC(=O)c1c(O)c(C)c(O)c(Cc2c(O)c3c(c(C(=O)/C=C/c4ccccc4)c2O)OC(C)(C)C=C3)c1O [Rottlerin] (2 µM) | inactive: 0
Cn1cc(C2=C(c3cn(C4CCN(Cc5ccccn5)CC4)c4ccccc34)C(=O)NC2=O)c2ccccc21 [Enzastaurin] (10 µM) | inactive: 0
Cc1ccccc1-n1c(Cn2ncc3c(N)ncnc32)nc2cccc(C)c2c1=O (10 µM) | inactive: 0
O=c1[nH]c2ccccc2n1C1CCN(Cc2ccc(-c3[nH]c4cc5ncnc5cc4nc3-c3ccccc3)cc2)CC1 [AKT inhibitor VIII] (2.5 µM) | inactive: 0
C=CC(=O)Nc1ccc2[nH]c(=O)n(C3CCN(Cc4ccc(-c5nc6cc[nH]c(=O)c6cc5-c5ccccc5)cc4)CC3)c2c1 [Borussertib] (10 µM) | inactive: 0
C[S+]([O-])/C=C/CCN=C=S (stereo not drawn) [Sulforaphene] (10 µM) | inactive: 0
CC1=C[C@]23C(=O)[C@@H](C=C(CO)[C@@H](O)[C@]2(O)[C@H]1O)[C@H]1[C@@H](C[C@H]3C)C1(C)C [Ingenol] (10 µM) | inactive: 0
CCCCCCCCCCCCCCCCOC[C@H](COP(=O)([O-])OCC[N+](C)(C)C)OC(C)=O (10 µM) | inactive: 0
Cc1ccccc1-n1c(Cn2cnc3c(N)ncnc32)nc2cccc(C)c2c1=O (10 µM) | inactive: 0
COc1ccc2c(c1)[nH]c1c(C)nccc12 [Harmine] (10 µM) | inactive: 0
O=C(N[C@@H](COc1ccc2[nH]c(=O)[nH]c2c1)c1ccccc1)c1cccn(Cc2ccc(F)c(F)c2)c1=O (2.5 µM) | inactive: 0
COc1cc2c(cc1F)C(c1ccccc1Cl)=Nc1c(n[nH]c1C)N2 (0.5 µM) | inactive: 0
N#CC(C#N)=Cc1ccc(O)c(O)c1 [Tyrphostin 23] (10 µM) | inactive: 0
N#CC(C#N)=NNc1cccc(Cl)c1 (2.5 µM) | inactive: 0

target: CSK (UniProt P41240); assay: as above; conditions: K562; 2-18 h

Structure (SMILES) | kinase-Nluc reporter destabilization hit call
O=c1cc(O)c2ccccc2o1 [4-Hydroxycoumarin] (10 µM) | inactive: 0
CCCCNc1nc(N)c2[nH]c(=O)n(Cc3ccc(C)nc3)c2n1 (10 µM) | inactive: 0
CCCS(=O)(=O)Nc1ccc(F)c(-n2cc(-c3cncnc3)c3nc(N(C)C4CCN(CC)CC4)ccc32)c1F (2 µM) | inactive: 0
C[C@H]1CC[C@]2(NC1)O[C@H]1C[C@H]3[C@@H]4CC[C@H]5C[C@@H](O[C@@H]6O[C@H](CO)[C@H](O[C@@H]7O[C@H](CO)[C@@H](O)[C@H](O[C@@H]8OC[C@@H](O)[C@H](O)[C@H]8O)[C@H]7O[C@@H]7O[C@H](CO)[C@@H](O)[C@H](O)[C@H]7O)[C@H](O)[C@H]6O)CC[C@]5(C)[C@H]4CC[C@]3(C)[C@H]1[C@@H]2C [Tomatine] (2.5 µM) | inactive: 0
Cc1n[nH]cc1-c1cc2nc([C@@H]3CC4CCN3CC4)[nH]c(=O)c2s1 [Simurosertib] (2.5 µM) | inactive: 0
O=Cc1cn(Cc2ccc(Cl)cc2)c2ccccc12 [Oncrasin-1] (10 µM) | inactive: 0
CC(=O)OC(C)(C)/C=C/C(=O)[C@](C)(O)[C@H]1[C@H](O)C[C@@]2(C)[C@@H]3CC=C4[C@@H](C=C(O)C(=O)C4(C)C)[C@]3(C)C(=O)C[C@]12C [Cucurbitacin E] (2.5 µM) | inactive: 0
C[C@@H]1CC[C@H]2[C@@H](C)C(=O)O[C@@H]3O[C@@]4(C)CC[C@@H]1[C@]32OO4 [Artemisinin] (10 µM) | inactive: 0
COc1ccc2c(c1)/C(=C/c1cnc[nH]1)C(=O)N2 (2.5 µM) | inactive: 0
CC(=O)O[C@H]1[C@H]2[C@@H](OC(=O)Cc3ccccc3)[C@@H](C)C[C@]2(OC(C)=O)C(=O)/C(C)=C/[C@@H]2[C@H](CC[C@@]13CO3)C2(C)C [Euphorbiasteroid] (10 µM) | inactive: 0
O=c1[nH]c2ccccc2n1C1CCN(CCCC(c2ccc(F)cc2)c2ccc(F)cc2)CC1 [Pimozide] (2.5 µM) | inactive: 0
CC(=O)Oc1ccc(/C=C/c2cc(OC(C)=O)cc(OC(C)=O)c2)cc1 [Triacetylresveratrol] (10 µM) | inactive: 0
C/C=C(/C)C(=O)O[C@H]1[C@@H]2[C@H](C)C(=O)O[C@@H]2C[C@@H](C)[C@@H]2C=CC(=O)[C@]21C [Brevilin A] (2.5 µM) | inactive: 0
O=[N+]([O-])/C=C/c1ccc2c(c1)OCO2 (2.5 µM) | inactive: 0
O=C(O)c1nn(Cc2ccc(Cl)cc2Cl)c2ccccc12 [Lonidamine] (10 µM) | inactive: 0
CC(=O)c1c(O)c(C)c(O)c(Cc2c(O)c3c(c(C(=O)/C=C/c4ccccc4)c2O)OC(C)(C)C=C3)c1O [Rottlerin] (2 µM) | inactive: 0
Cn1cc(C2=C(c3cn(C4CCN(Cc5ccccn5)CC4)c4ccccc34)C(=O)NC2=O)c2ccccc21 [Enzastaurin] (10 µM) | inactive: 0
Cc1ccccc1-n1c(Cn2ncc3c(N)ncnc32)nc2cccc(C)c2c1=O (10 µM) | inactive: 0
O=c1[nH]c2ccccc2n1C1CCN(Cc2ccc(-c3[nH]c4cc5ncnc5cc4nc3-c3ccccc3)cc2)CC1 [AKT inhibitor VIII] (2.5 µM) | inactive: 0
C=CC(=O)Nc1ccc2[nH]c(=O)n(C3CCN(Cc4ccc(-c5nc6cc[nH]c(=O)c6cc5-c5ccccc5)cc4)CC3)c2c1 [Borussertib] (10 µM) | inactive: 0
C[S+]([O-])/C=C/CCN=C=S (stereo not drawn) [Sulforaphene] (10 µM) | inactive: 0
CC1=C[C@]23C(=O)[C@@H](C=C(CO)[C@@H](O)[C@]2(O)[C@H]1O)[C@H]1[C@@H](C[C@H]3C)C1(C)C [Ingenol] (10 µM) | inactive: 0
CCCCCCCCCCCCCCCCOC[C@H](COP(=O)([O-])OCC[N+](C)(C)C)OC(C)=O (10 µM) | inactive: 0
Cc1ccccc1-n1c(Cn2cnc3c(N)ncnc32)nc2cccc(C)c2c1=O (10 µM) | inactive: 0
COc1ccc2c(c1)[nH]c1c(C)nccc12 [Harmine] (10 µM) | inactive: 0
O=C(N[C@@H](COc1ccc2[nH]c(=O)[nH]c2c1)c1ccccc1)c1cccn(Cc2ccc(F)c(F)c2)c1=O (2.5 µM) | inactive: 0
COc1cc2c(cc1F)C(c1ccccc1Cl)=Nc1c(n[nH]c1C)N2 (0.5 µM) | inactive: 0
N#CC(C#N)=Cc1ccc(O)c(O)c1 [Tyrphostin 23] (10 µM) | inactive: 0
N#CC(C#N)=NNc1cccc(Cl)c1 (2.5 µM) | inactive: 0
